For 3 molecules, binding results are on record in PMC7529585.

By UniProt entry, the sequences of proteins in these tests, tags left out. Where a name states a change or a piece, a line headed by the entry shows the natural chain unless it says otherwise.
UniProt Q9UI12: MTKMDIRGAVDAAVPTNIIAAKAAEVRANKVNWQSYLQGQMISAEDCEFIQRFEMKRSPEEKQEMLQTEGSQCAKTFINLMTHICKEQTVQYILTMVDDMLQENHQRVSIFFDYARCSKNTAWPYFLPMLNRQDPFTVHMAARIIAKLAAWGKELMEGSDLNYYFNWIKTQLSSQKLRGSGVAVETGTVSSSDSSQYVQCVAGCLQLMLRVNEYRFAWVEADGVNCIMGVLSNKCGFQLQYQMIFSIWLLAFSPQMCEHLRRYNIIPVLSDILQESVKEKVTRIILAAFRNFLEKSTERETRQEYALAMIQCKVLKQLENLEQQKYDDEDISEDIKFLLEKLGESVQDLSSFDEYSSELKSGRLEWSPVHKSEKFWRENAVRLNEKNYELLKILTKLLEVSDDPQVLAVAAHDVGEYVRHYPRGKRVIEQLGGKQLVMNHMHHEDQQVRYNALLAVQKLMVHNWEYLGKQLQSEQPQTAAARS
UniProt Q13488: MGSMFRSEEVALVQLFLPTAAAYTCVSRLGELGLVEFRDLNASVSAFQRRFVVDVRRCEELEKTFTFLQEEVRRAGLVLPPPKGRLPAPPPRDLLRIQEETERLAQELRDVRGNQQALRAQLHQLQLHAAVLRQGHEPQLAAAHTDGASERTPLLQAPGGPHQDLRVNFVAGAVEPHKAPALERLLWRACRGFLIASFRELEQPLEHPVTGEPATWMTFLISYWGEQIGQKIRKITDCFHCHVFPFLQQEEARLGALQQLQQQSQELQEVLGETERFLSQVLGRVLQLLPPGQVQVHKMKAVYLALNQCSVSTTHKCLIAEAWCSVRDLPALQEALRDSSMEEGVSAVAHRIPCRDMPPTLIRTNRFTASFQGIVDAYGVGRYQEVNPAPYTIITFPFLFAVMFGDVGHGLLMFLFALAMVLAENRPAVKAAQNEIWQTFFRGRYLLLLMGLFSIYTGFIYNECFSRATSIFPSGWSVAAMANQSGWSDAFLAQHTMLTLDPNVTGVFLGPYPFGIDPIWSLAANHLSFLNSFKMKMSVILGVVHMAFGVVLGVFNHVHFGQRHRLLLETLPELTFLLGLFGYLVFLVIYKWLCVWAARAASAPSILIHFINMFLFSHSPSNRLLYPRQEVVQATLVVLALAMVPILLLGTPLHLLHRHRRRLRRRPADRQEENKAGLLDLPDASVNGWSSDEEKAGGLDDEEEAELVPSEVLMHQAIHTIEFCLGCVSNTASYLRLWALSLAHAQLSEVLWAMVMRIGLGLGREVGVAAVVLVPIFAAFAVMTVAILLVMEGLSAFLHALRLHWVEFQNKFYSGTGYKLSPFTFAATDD

Experiment [1] concerns the target V-ATPase subunit V1H (ATP6V1H) (human (endogenous in MDAH-2774 and OVCAR8)) (UniProt Q9UI12). Nature of the experiment: co-IP; 1 mg lysate of MDAH cells (untreated or treated with GSK650394 35 uM for 16 and 24 h) precipitated with anti-ATP6V1H antibody in HNTG buffer (20 mM HEPES, 150 mM NaCl, 10% glycerol, 0.1% Triton X-100), overnight at 4 C, protein A and G beads; blots for ATP6V1H, SGK2 and ATP6V0A3; all proteins endogenous.

The target is the same in experiment [2]. The experiment in a line: co-IP; lysate of OVCAR8 cells stably overexpressing SGK2 (or empty vector) precipitated with anti-ATP6V1H antibody in HNTG buffer, overnight at 4 C, protein A and G beads; blots for ATP6V1H, SGK2 and ATP6V0A3.

These are yes or no findings as the source states them, for the method shown. In cells and extracts the contact can be indirect. Some results given as binding are weak or reduced against the parent protein; the word gives no strength. Tags and fused reporters may be left off the sequences shown.

With “V-ATPase subunit V0A3 (ATP6V0A3) (from UniProt Q13488 1-830)”, the binding result in experiment [1] and in experiment [2] was “binds” in each case.

B1: Serum- and glucocorticoid-inducible kinase 2 (enzyme, UniProt Q9HBY8 1-367)
chain: MNSSPAGTPSPQPSRANGNINLGPSANPNAQPTDFDFLKVIGKGNYGKVLLAKRKSDGAFYAVKVLQKKSILKKKEQSHIMAERSVLLKNVRHPFLVGLRYSFQTPEKLYFVLDYVNGGELFFHLQRERRFLEPRARFYAAEVASAIGYLHSLNIIYRDLKPENILLDCQGHVVLTDFGLCKEGVEPEDTTSTFCGTPEYLAPEVLRKEPYDRAVDWWCLGAVLYEMLHGLPPFYSQDVSQMYENILHQPLQIPGGRTVAACDLLQSLLHKDQRQRLGSKADFLEIKNHVFFSPINWDDLYHKRLTPPFNPNVTGPADLKHFDPEFTQEAVSKSIGCTPDTVASSSGASSAFLGFSYAPEDDDILDC
As to B1, the binding result in experiment [1] is given as “binds”.

B2: SGK2 stably overexpressed in OVCAR8 cells (EGFP-SGK2) (enzyme, UniProt Q9HBY8 1-367)
chain: MNSSPAGTPSPQPSRANGNINLGPSANPNAQPTDFDFLKVIGKGNYGKVLLAKRKSDGAFYAVKVLQKKSILKKKEQSHIMAERSVLLKNVRHPFLVGLRYSFQTPEKLYFVLDYVNGGELFFHLQRERRFLEPRARFYAAEVASAIGYLHSLNIIYRDLKPENILLDCQGHVVLTDFGLCKEGVEPEDTTSTFCGTPEYLAPEVLRKEPYDRAVDWWCLGAVLYEMLHGLPPFYSQDVSQMYENILHQPLQIPGGRTVAACDLLQSLLHKDQRQRLGSKADFLEIKNHVFFSPINWDDLYHKRLTPPFNPNVTGPADLKHFDPEFTQEAVSKSIGCTPDTVASSSGASSAFLGFSYAPEDDDILDC
On to B2, for which the binding result in experiment [2] is reported as “binds”.
